Assay results as given in paper PMC10499909.

By UniProt entry, the sequences of proteins in these tests, tags left out. Residues count along the entry.
UniProt P24627, 20-708: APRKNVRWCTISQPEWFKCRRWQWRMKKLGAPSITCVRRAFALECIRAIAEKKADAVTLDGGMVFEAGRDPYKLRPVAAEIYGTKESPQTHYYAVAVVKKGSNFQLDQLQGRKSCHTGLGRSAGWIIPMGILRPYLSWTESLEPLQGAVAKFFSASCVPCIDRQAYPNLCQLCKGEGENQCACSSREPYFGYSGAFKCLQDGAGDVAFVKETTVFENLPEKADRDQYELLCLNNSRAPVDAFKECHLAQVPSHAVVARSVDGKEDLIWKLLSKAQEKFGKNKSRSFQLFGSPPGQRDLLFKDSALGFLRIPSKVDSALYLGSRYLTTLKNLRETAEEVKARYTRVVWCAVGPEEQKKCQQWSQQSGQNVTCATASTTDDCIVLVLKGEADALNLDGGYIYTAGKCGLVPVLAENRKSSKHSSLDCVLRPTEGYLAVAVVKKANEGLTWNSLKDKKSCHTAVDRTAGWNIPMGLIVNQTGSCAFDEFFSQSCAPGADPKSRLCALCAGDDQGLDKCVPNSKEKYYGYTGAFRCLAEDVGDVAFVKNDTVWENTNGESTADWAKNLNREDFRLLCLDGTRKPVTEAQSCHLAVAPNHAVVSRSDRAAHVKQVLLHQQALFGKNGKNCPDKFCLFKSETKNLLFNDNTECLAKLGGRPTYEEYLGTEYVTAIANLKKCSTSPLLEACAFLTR
UniProt P02788, 20-710: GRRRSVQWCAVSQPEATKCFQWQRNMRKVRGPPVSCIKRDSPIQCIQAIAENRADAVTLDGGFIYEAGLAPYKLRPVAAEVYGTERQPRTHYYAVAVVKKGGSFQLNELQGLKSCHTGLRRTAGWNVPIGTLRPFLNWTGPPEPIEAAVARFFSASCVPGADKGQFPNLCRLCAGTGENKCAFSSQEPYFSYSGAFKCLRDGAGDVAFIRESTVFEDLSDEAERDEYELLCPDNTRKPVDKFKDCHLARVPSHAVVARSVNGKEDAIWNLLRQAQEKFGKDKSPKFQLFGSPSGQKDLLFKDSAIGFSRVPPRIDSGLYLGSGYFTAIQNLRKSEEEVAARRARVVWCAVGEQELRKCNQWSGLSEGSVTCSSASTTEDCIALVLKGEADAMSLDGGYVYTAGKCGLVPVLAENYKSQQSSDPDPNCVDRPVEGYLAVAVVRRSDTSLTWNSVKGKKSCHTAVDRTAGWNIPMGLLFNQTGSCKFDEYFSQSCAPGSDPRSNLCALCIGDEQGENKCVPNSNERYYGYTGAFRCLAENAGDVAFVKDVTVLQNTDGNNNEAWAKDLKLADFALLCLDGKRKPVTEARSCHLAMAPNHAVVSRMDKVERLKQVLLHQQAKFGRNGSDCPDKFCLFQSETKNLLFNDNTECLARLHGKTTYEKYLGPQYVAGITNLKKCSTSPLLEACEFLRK

Key:
[1] = target: lactoferrin (bovine colostrum, L4765) (Bos taurus (bovine)) (UniProt P24627); experiment: fluorescence polarization, displacement from graphene oxide; details: graphene oxide nanosheets, LF 2-10 ug/mL, LOD 1.397 ug/mL; 5'-amino, conjugated to carbon dots (EDC/NHS); PBS pH 6.8, 37 °C, 30 min in dark; CDs-aptamer 0.05 mg/mL with graphene oxide nanosheets; commercial protein; label: carbon dots (fluorescent); single-stranded DNA
[2] = target: lactoferrin (human tear) (human) (UniProt P02788); experiment: as above; details: graphene oxide nanosheets, human tear sample, 3.32 mg/mL LF measured; 5'-amino, conjugated to carbon dots (EDC/NHS); PBS pH 6.8, 37 °C, 30 min in dark; CDs-aptamer 0.05 mg/mL with graphene oxide nanosheets; native protein; label: carbon dots (fluorescent); single-stranded DNA

Sequence: AGGCAGGACACCGTAACCGGTGCATCTATGGCTACTAGCTCTTCCTGCCT [LF aptamer on carbon dots (CDs-aptamer)]
- binding result [1]: binds
- binding result [2]: binds

Construct, isoform or probe ends are uncertain for at least one entry. At least one verdict was read from the data and is not stated in words by the source.
